PubChem BioAssay AID504774 – Drosophila RNAi Screening Center | 2011
The screen tested about 23,000 reagents; shown is an unselected part of those with a known target gene and a result. 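Values are quantile-normalised luminescence on an arbitrary scale; higher means more cells surviving MMS.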 The numbers tell different reagents against one gene apart. Names joined by + are all predicted targets of the reagent. Further read-outs or replicates are left out here.

Screen: 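Fly genes whose loss alters survival after alkylation damage to DNA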 (primary screen)
Cell system: Drosophila Kc167 cells
Reagent: long dsRNA against Drosophila genes, about 0.25 µg dsRNA per well
Timing: about 6 days: 3 days knock-down, then 3 days with or without MMS
Treatment: methyl methanesulphonate 0.004% (w/v) for 3 days after knock-down
Measured: 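ATP-dependent luminescence as a measure of live cells in MMS-exposed wells, quantile normalised within each plate, with replicate values also given as a mean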
Direction: mean viability with MMS: higher = more surviving cells after MMS

The first 8 records as a preview:
target gene	reagent	mean viability with MMS
CG13676	1	3.32e6
CG34280	1	3.47e6
Tmtc3 (Transmembrane O-mannosyltransferase targeting cadherins 3)	1	3.70e6
CG15120	1	3.59e6
alpha-Est7 (alpha-Esterase-7)	1	1.93e6
CG5149	1	3.57e6
CG12395	1	3.54e6
Hou (Houki)	1	3.86e6

Main list, from the first entry:
target gene	reagent	mean viability with MMS
CG13676	1	3.32e6
CG34280	1	3.47e6
Tmtc3 (Transmembrane O-mannosyltransferase targeting cadherins 3)	1	3.70e6
CG15120	1	3.59e6
alpha-Est7 (alpha-Esterase-7)	1	1.93e6
CG5149	1	3.57e6
CG12395	1	3.54e6
Hou (Houki)	1	3.86e6
Hou (Houki)	2	3.05e6
upd1 (unpaired 1)	1	3.55e6
RpL10Ab (Ribosomal protein L10Ab)	1	3.01e6
Syx5 (Syntaxin 5)	1	3.30e6
MED14 (Mediator complex subunit 14)	1	2.81e6
sqz (squeeze)	1	3.77e6
CG12880	1	3.55e6
CG14933 + CG42486	1	3.34e6
CG14006	1	3.53e6
CG32266	1	3.87e6
CG13559	1	3.58e6
Rpn8 (Regulatory particle non-ATPase 8)	1	2.89e6
CG6282	1	3.59e6
Fpps (Farnesyl pyrophosphate synthase)	1	3.50e6
CG3955	1	3.39e6
HmgD (High mobility group protein D)	1	2.98e6
RpL11 (Ribosomal protein L11)	1	2.96e6
Snp (Snipper)	1	3.53e6
Snp (Snipper)	2	3.40e6
qtc (quick-to-court)	1	3.63e6
qtc (quick-to-court)	2	3.31e6
Qsox2 (Quiescin sulfhydryl oxidase 2)	1	3.42e6
CG14744	1	3.47e6
Zip42C.2 (Zinc/iron regulated transporter-related protein 42C.2)	1	3.45e6
CG13297	1	3.77e6
CG31176	1	3.62e6
CG31176	2	3.73e6
TBC1d7 (TBC1 domain family member 7)	1	3.72e6
Trxr2 (Thioredoxin reductase 2)	1	3.28e6
BBS4 (Bardet-Biedl syndrome 4)	1	1.80e6
CG13563	1	3.52e6
Grl62a (Gustatory receptor-like 62a)	1	3.70e6
Acsf2 (Acyl-CoA synthetase family member 2)	1	3.44e6
Tb (Tubby)	1	3.62e6
CysRS-m (Cysteinyl-tRNA synthetase, mitochondrial)	1	3.69e6
CG13526	1	3.74e6
Cf2 (Chorion factor 2)	1	2.82e6
Cf2 (Chorion factor 2)	2	3.66e6
Send2 (Spermathecal endopeptidase 2)	1	3.59e6
scra (scraps)	1	3.48e6
sisA	1	3.43e6
BI-1 (Bax Inhibitor-1)	1	3.49e6
cDIP (Common Dpr-interacting protein)	1	3.59e6
Nsun2 (NOP2-Sun domain family, member 2)	1	3.32e6
CG14907 + Mettl4	1	3.61e6
CG14907 + Mettl4	2	3.66e6
CG14562	1	3.64e6
Xpd (Xeroderma pigmentosum D)	1	3.56e6
CG18273	1	3.46e6
CG18273	2	3.69e6
CG12511	1	3.78e6
Smn (survival motor neuron)	1	3.40e6
Chmp1 (Charged multivesicular body protein 1)	1	3.66e6
CG17801	1	3.55e6
Jhe (Juvenile hormone esterase)	1	3.61e6
E(Pc) (Enhancer of Polycomb)	1	3.11e6
E(Pc) (Enhancer of Polycomb)	2	3.05e6
Snr1 (Snf5-related 1)	1	3.55e6
l(1)G0004 (lethal (1) G0004)	1	3.45e6
foxo (forkhead box, sub-group O)	1	2.83e6
foxo (forkhead box, sub-group O)	2	3.71e6
